# Library screen at single concentrations

The values are deposited in ChEMBL (CHEMBL3988442, “University of Dundee, Small-Polar-MMV Screening Library” (2021)).

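Whole-parasite assay of Trypanosoma brucei over 72 hours; the read-out is not stated. Compounds at 30 µM. The record gives no direction; compounds that gave an IC50 in retests scored well above the rest, so higher reads as stronger inhibition. Values scatter widely below zero; nearly all retest evidence comes from the higher of the two concentrations used. About 64,000 compounds were tested under these conditions; 1.5% (about 940) showed 50% or more at least once.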

Each number is a percent effect as filed.
How 0% and 100% were set is not recorded. Most values in the screen are low, and negative values occur.
The compounds are a random part of those screened.

Compound	Percent Effect
c1ccc(Oc2ccc(OC34CCCN(CC3)C4)cc2)cc1 (centres undefined)	99.82
Cn1ccc(C(=O)Nc2cccc(-c3ccc4c(c3)CCO4)n2)cc1=O	-26.76
Cc1c(-c2ccccc2)nc2c(c(C)c(C)n2CCN(C)C)c1N	19.35
NC(=O)C1CCCN1c1cc(N2CCc3ccccc3C2)ncn1 (centres undefined)	35.31
Cc1ccccc1C(C)(C)CNC(=O)CCSc1nnnn1C	-44.36
Cc1ncc2c(c1CNC(=O)C1(C)CCCO1)CCNC2 (centres undefined)	-8.066
COCC(=O)N[C@H](C)c1onc(-c2ccccc2)c1C(=O)O	-0.2866
Cc1nc(CN2CCCC(CCc3ccccc3C(F)(F)F)C2)co1 (centres undefined)	52.02
CN(C)Cc1cnc2n1CCN(Cc1ccsc1)CC2.O=C(O)C(F)(F)F.O=C(O)C(F)(F)F	2.272
CN(C)C(=O)c1ccc2c(c1)N(C)C(CC(=O)NC(C)(C)CO)CO2 (centres undefined)	-6.033
CSCc1ccc(CNCCCN2CCOCC2)o1	-24.35
Cc1ccc(-c2nc(CSCCC(=O)NC(N)=O)co2)cc1	-40.1
[H][C@@]12CCN(C)[C@@]1([H])CCN2S(=O)(=O)Cc1ccc(C)cc1	17.51
CN1CCc2nc3c(c(N)c2C1)CCCN3C	-7.105
CN1Cc2ccccc2CC2(CCN(c3ncc(F)cn3)CC2)C1=O	-45.94
CN(C)S(=O)(=O)NCC1CCN(Cc2ccccc2F)CC1	-12.23
Cc1cc(C)c(C(=O)N2CCn3nc(C(=O)NCCN(C)C)cc3C2)[nH]1	-38.59
N#Cc1c(F)cccc1N1CCN(S(=O)(=O)c2cccs2)CC1	-50.66
C[C@@H]1CN(C(=O)CCCN2CCOCC2)CC[C@@]1(O)C1CCC1	2.965
Cl.Fc1cccc(F)c1Cn1c(C2CCNCC2)cc2cccnc21	90.9
FC(F)(F)C1CN(Cc2cccc(-c3ccccn3)c2)CCO1 (centres undefined)	-13.11
CCn1cc(CN2CCCN(C(=O)C3=NN(C)C(=O)CC3)CC2)cn1	-49.7
Cn1cccc1CN1CCC2(CCCN(C(=O)Cc3cccnc3)C2)C1 (centres undefined)	-24.64
Cc1ccc(-c2nnc(C(C)NCCn3cc(C)cn3)o2)cc1 (centres undefined)	-4.663
CC(NC(=O)NCCNc1ccccn1)c1cccs1 (centres undefined)	13.92
CC[C@@H](C)[C@H](NC(=O)Cn1ccc2c(Cl)cccc21)C(=O)O	-41.88
CS(=O)(=O)N1CCN(Cc2ccc(F)cc2Br)CC1	-6.822
Cc1nc(C)n(CC2CN(CCc3cccs3)CCO2)n1 (centres undefined)	-31.62
CC(C)(N)c1cn(C2CCN(c3ncccc3Cl)CC2)nn1	-22.37
COCCNC(=O)c1cnc(C)nc1C	-66.81
CC(C)Cc1ncc2c(n1)CN(C(=O)c1ccc(CN3CCCC3)o1)C2	2.529
CCC1CN(C(=O)c2csc3nc(-c4ccc(Cl)cc4)cn23)CCN1 (centres undefined)	66.56
COc1c(C2CCCN2CC(=O)Nc2cc(C)on2)c(C)nn1C (centres undefined)	-31.25
O=C(NCCn1cccc1)C(c1ccccc1)N1CCCC1 (centres undefined)	7.918
CCCN(C)c1ccc(C(=O)Nc2c(C)nn(C(C)C)c2C)cc1	-50.01
O=C(c1ccccc1-c1ccccc1)N1CCOC2(CNCCOC2)C1 (centres undefined)	-7.046
CC(C)CC(C)NCc1cccnc1N1CCOCC1 (centres undefined)	-48.9
CCc1ccc(CN(C)C(=O)C(c2ccccc2F)N(C)C)nc1 (centres undefined)	38.09
Cc1nn2cccnc2c1C(=O)N1CCCC(n2ccnc2C)C1 (centres undefined)	-11.12
[H][C@@]12C[C@H](C(=O)Nc3cccnc3)[C@@]([H])(CN(S(=O)(=O)N(C)C)C1)O2	-739.2
CC(CN1CCN(C)CC1)NC(=O)c1cc(Cl)c2c(c1)OCO2 (centres undefined)	6.925
Cc1cc(C(F)(F)F)nn1CCCNC(=O)C1CCC1	-4.9
CC(=O)N1CCN(C(=O)c2cc(-n3cnnn3)ccc2Cl)CC1	-38.27
Cc1cccc(N2CCN(C(=O)CC3(O)CCCC3)C(C)C2)n1 (centres undefined)	-19.96
CC(=O)N1CCCN(CC(C)(O)c2cccc(C(F)(F)F)c2)CC1 (centres undefined)	3.828
O=C(Cc1c(F)cccc1Cl)Nc1cc(N2CCCC2)ncn1	-1.859
COc1ncc(NS(=O)(=O)c2cccc(C)c2)c(OC)n1	-19.17
COCCN(Cc1ccncc1)C(=O)C1COc2ccccc2C1 (centres undefined)	-80.9
CCOC(=O)C1CC2(CCCC2)N2CCC(=O)N12 (centres undefined)	-34.3
Cc1ccn(-c2ccc(C(=O)N3CCCC(n4ccnc4)C3)cc2)n1 (centres undefined)	-19.15
Cn1cc(CN2CCCC23CCN(C(=O)c2cccn2C)CC3)cn1.O=C(O)C(F)(F)F	4.354
COc1ccc(CNC(=O)CCc2nnc3ccccn3c2=O)cc1	-12.43
Cc1nc(CC(=O)N2CCN(Cc3ccc(C#N)cc3)CC2)cs1	24.99
CC(C)NC(=O)N1CCC[C@H]1C(=O)NCCCc1cnn(C)c1	-10.44
CCN1CC2(CCCCN2C(=O)c2ccn(C)n2)CC1=O (centres undefined)	-2.872
O[C@H]1CC[C@@H](Cc2cc(-c3ccccc3)on2)O[C@@H]1CNCC1CC1	11.96
Cc1cc(F)ccc1NCC(=O)NCC(F)(F)F	-34.54
CC(C)c1nc(CC(=O)N(C)Cc2ccc3c(c2)OCO3)cs1	-7.776
Cc1ccc2cnn(CCC(=O)Nc3c(C)nn(C)c3C)c2c1	-14.17
Cc1cc(NCC(=O)NCC(F)(F)F)nc(-c2ccncc2)n1	-53.67
N#Cc1cccc(CN2CCCC2c2ccc[nH]2)c1 (centres undefined)	-13.83
CC(C)n1nnnc1-c1ccc(NC(=O)C(C)(C)C#N)cc1F	2.56
Cl.O=C(NCCO)c1sc2ncccc2c1C1CNCCO1 (centres undefined)	-30.58
Cc1ccccc1C(=O)NCC(=O)NCc1ccccn1	-46.84
Cc1nc(CN2CCC3(CCN(C(=O)c4ccoc4C)CC3)C2)cs1.O=C(O)C(F)(F)F	-34.43
CS(=O)(=O)N[C@@H]1CCN(Cc2cccs2)[C@H]1Cc1cccnc1	-17.46
CC1(C)CCC(C(=O)O)c2ccccc21 (centres undefined)	-19.08
Cc1ccc(CCNc2ncnc3sc4c(c23)CCNC4)o1	-120.3
Cc1nc(NC(=O)N2CCCC(C(F)(F)F)C2)nn1C (centres undefined)	-20.15
O=C(CCc1nc2cccnc2[nH]1)NCc1ccc2c(c1)OCO2	17.27
Cc1cc(F)ccc1CCNC(=O)NCC(C)N1CCOCC1 (centres undefined)	-5.14
CCO[C@@H]1CCN(C(=O)c2ccnnc2)[C@@H]1Cc1cnn(C)c1	-16.8
CCOCCNc1nc(C2CCCC2)nc2c1cnn2C	-41.4
O=C(O)C(F)(F)F.O=C(O)C(F)(F)F.O=C(O)C(F)(F)F.[H][C@@]12CCCO[C@]1([H])[C@H](N(C)Cc1ccco1)CN2Cc1nccn1C	-22.86
Cc1ccc(N2N=C(C(=O)N(C)Cc3ccco3)NCC2=O)cc1	6.056
CCOCC(=O)N(C)c1ccc(F)c(Cl)c1	-23.67
CCc1nc(N2CCCN(c3ncccn3)CC2)c2cnn(C)c2n1	41.14
Cc1nc(C)c(C(=O)N2CCCC(C(=O)c3nccn3C)C2)s1 (centres undefined)	-20.57

9 of the entries, repeated:

Cc1cc(C(F)(F)F)nn1CCCNC(=O)C1CCC1 gave -4.9%.
CCO[C@@H]1CCN(C(=O)c2ccnnc2)[C@@H]1Cc1cnn(C)c1 gave -16.8%.
Cc1nc(C)c(C(=O)N2CCCC(C(=O)c3nccn3C)C2)s1 (centres undefined) gave -20.57%.
CN1CCc2nc3c(c(N)c2C1)CCCN3C gave -7.105%.
CC(C)Cc1ncc2c(n1)CN(C(=O)c1ccc(CN3CCCC3)o1)C2 gave 2.529%.
CCn1cc(CN2CCCN(C(=O)C3=NN(C)C(=O)CC3)CC2)cn1 gave -49.7%.
CS(=O)(=O)N[C@@H]1CCN(Cc2cccs2)[C@H]1Cc1cccnc1 gave -17.46%.
Cc1cc(C)c(C(=O)N2CCn3nc(C(=O)NCCN(C)C)cc3C2)[nH]1 gave -38.59%.
C[C@@H]1CN(C(=O)CCCN2CCOCC2)CC[C@@]1(O)C1CCC1 gave 2.965%.